{
  "source": "PubChem BioAssay AID504444",
  "about": "(National Center for Advancing Translational Sciences (NCATS), 2011)",
  "note": "Hit rate of the full screen: of about 360,000 compounds, about 7,500 (2.1%) were called active. The inconclusive results got no clear call from the source; some entries with a clear call stand among them for comparison. Calls come from the whole dose curve; as a rule, active = well fitted inhibition curve with a large enough effect; inconclusive = small, poorly fitted or top-dose-only effect, or effect the other way; inactive = flat fitted curve, though single readings scatter. A potency beside an inconclusive call is a rough fit, not a confirmed value. % is set by controls: 0 for no effect and ±100 for the full control effect; potency is the fitted concentration of half-maximal effect.",
  "data": [
    {"assay": "Nrf2 qHTS screen for inhibitors; note: nearly all actives have a fitted effect of over 60% in size", "details": "A549 ARE-Fluc reporter, luciferase luminescence, 18-24 h; activity change, negative = inhibition: at 46 µM (top of the series)", "procedure,_shortened": "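A549 ARE_Fluc cells (5000/well, 5% FBS OPTI-MEM) pre-incubated 2 h, then treated with compounds 18-24 h at 37C/5% CO2 in concentration-response. CellTiter-Fluor viability read first; BugLite luciferase luminescence after 15 min at room temperature gives Nrf2 activity.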", "values": [
      {"smiles": "CCOc1ccc(CNC(=O)Cn2ncc3c(=O)oc4ccc(C)cc4c32)cc1", "activity change, negative = inhibition": "inactive: -15.1%"},
      {"smiles": "Brc1ccc(-c2cn3ccccc3n2)s1", "Potency": "inconclusive: 0.731 µM [activator, full curve, poor fit]"},
      {"smiles": "O=C(O)c1ccccc1C(=O)NC1CCCc2ccccc21", "note": "(stereo not given)", "Potency": "inconclusive: 0.82 µM [falling, full curve, poor fit]"},
      {"smiles": "COc1cc(OC)c2c(-c3cccc(-c4ccc(OC)c(OC)c4)c3)cc(=O)oc2c1", "Potency": "inconclusive: 14.6 µM [activator, partial curve, poor fit]"},
      {"smiles": "C=CCc1c(C)nc2ccc(C(=O)OCC)cc2c1Cl", "Potency": "inconclusive: 1.3 µM [activator, partial curve, poor fit]"},
      {"smiles": "CCOC(=O)C(C)(C)Sc1ncnc2nc[nH]c12", "activity change, negative = inhibition": "inactive: 1.31%"},
      {"smiles": "COc1ccc(CN(Cc2ccccc2)C(=O)c2ccccc2O)cc1", "Potency": "inconclusive: 13 µM [activator, partial curve]"},
      {"smiles": "CN(Cc1ccccc1)C(=O)c1ccccc1NC(=O)c1ccccc1", "Potency": "inconclusive: 0.0046 µM [falling, full curve, poor fit]"},
      {"smiles": "CCC(C(=O)NCCCN1CC(C)CC(C)C1)n1nc(C)c2sc3ccccc3c2c1=O", "note": "(stereo not given)", "Potency": "inconclusive: 18.4 µM [falling, single point]"},
      {"smiles": "CCCCC(=O)Nc1nc(-c2ccc(S(=O)(=O)N3CCOCC3)cc2)cs1", "Potency": "inconclusive: 29.1 µM [falling, single point]"},
      {"smiles": "COc1ccc(Nc2oc(COc3ccccc3OC)nc2C#N)cc1", "Potency": "inconclusive: 14.6 µM [falling, single point]"},
      {"smiles": "Cc1ccc(CSc2nc3ccc(NC(=O)COc4ccccc4F)cc3s2)cc1", "Potency": "inconclusive: 29.1 µM [falling, partial curve, poor fit]"},
      {"smiles": "COc1ccc(-c2cc(C(F)F)n3ncc(C(=O)Nc4cccc(S(=O)(=O)N5CCOCC5)c4)c3n2)cc1", "Potency": "inconclusive: 1.64 µM [falling, partial curve, poor fit]"},
      {"smiles": "CCCOc1ccc(C(=O)C(CN2CCOCC2)c2ccccc2)cc1", "note": "(stereo not given)", "activity change, negative = inhibition": "inactive: -16.9%"},
      {"smiles": "COc1ccccc1N(C(=O)c1ccncc1)c1nc(-c2ccc([N+](=O)[O-])cc2)cs1", "Potency": "inconclusive: 25.9 µM [falling, partial curve, poor fit]"},
      {"smiles": "Cc1ccc(C(=O)OCC(=O)NCc2cccc(Cl)c2)cc1S(=O)(=O)N1CCCCC1", "Potency": "inconclusive: 29.1 µM [falling, single point]"},
      {"smiles": "COc1ccc(Nc2c([N+](=O)[O-])ccc3c2=NC2(CCCCC2)N=3)cc1", "Potency": "inconclusive: 29.1 µM [falling, single point]"},
      {"smiles": "COC(=O)c1ccc(Sc2nnnn2-c2ccccc2)c([N+](=O)[O-])c1", "Potency": "inconclusive: 20.6 µM [falling, single point]"},
      {"smiles": "COc1cc2sc3ccc(-c4ccc(N(C)C)nc4)cc3c(=O)c2cc1OC", "Potency": "inconclusive: 6.51 µM [activator, full curve]"},
      {"smiles": "CCC1C(c2ccccc2)N(C)C(c2ccccc2)CC1(O)c1ccccc1", "note": "(stereo not given)", "activity change, negative = inhibition": "inactive: 3.4%"},
      {"smiles": "O=C1CN(C(=O)CSc2nc3cc(Cl)ccc3c(=O)n2Cc2ccccc2)c2ccccc2N1", "Potency": "inconclusive: 18.4 µM [falling, single point]"},
      {"smiles": "O=C(O)c1cc(-n2[nH]c(=O)c3ccccc3c2=O)ccc1Cl", "Potency": "inconclusive: 20.6 µM [activator, partial curve]"},
      {"smiles": "CC(=O)Nc1ccc(OCC(=O)N2CCC(Cc3ccccc3)CC2)cc1", "Potency": "inconclusive: 9.2 µM [falling, partial curve]"},
      {"smiles": "Cc1cc(C(=O)Nc2ccccn2)cs1", "Potency": "inconclusive: 1.84 µM [activator, partial curve]"},
      {"smiles": "CCOC(=O)N1CCN(C(=O)CN(c2ccc(C)cc2C)S(=O)(=O)c2ccccc2)CC1", "activity change, negative = inhibition": "inactive: -2.38%"},
      {"smiles": "Cc1cc(C)c2nc(NNC(=O)c3cc(-c4cccs4)nc4ccccc34)sc2c1", "Potency": "inconclusive: 29.1 µM [falling, single point]"},
      {"smiles": "O=C(CSc1nc(-c2ccco2)cc(C(F)(F)F)n1)NC1CCCC1", "Potency": "inconclusive: 10.3 µM [falling, partial curve]"},
      {"smiles": "Cc1cc(/C=C(\\C#N)C(=O)N2CCOCC2)c(C)n1C1CCCC1", "Potency": "inconclusive: 3.26 µM [activator, partial curve, poor fit]"},
      {"smiles": "O=C(NC(=S)Nc1ccc(Cl)cn1)C(c1ccccc1)c1ccccc1", "Potency": "inconclusive: 18.4 µM [falling, single point]"},
      {"smiles": "COC(=O)c1cc(NC(=O)CN(c2ccccc2)S(=O)(=O)N(C)C)ccc1Cl", "activity change, negative = inhibition": "inactive: -0.0227%"},
      {"smiles": "NS(=O)(=O)c1ccc(CCNc2nc3c(-c4cccc(F)c4)nnn3c3ccc(Cl)cc23)cc1", "Potency": "inconclusive: 10.3 µM [activator, partial curve, poor fit]"},
      {"smiles": "O=C(Nc1ccccc1)N1CCc2c([nH]c3ccccc23)C1C(F)(F)F", "note": "(stereo not given)", "Potency": "inconclusive: 25.9 µM [falling, partial curve, poor fit]"},
      {"smiles": "Cc1cc(N/N=C/c2cccc(Cl)c2)nc(-n2nc(C)cc2C)n1", "Potency": "active: 16.4 µM"},
      {"smiles": "O=C(c1cc(-c2ccc(O)cc2)on1)N1CCN(c2ccc(F)cc2)CC1", "Potency": "inconclusive: 25.9 µM [falling, single point]"},
      {"smiles": "Cc1ccc(NC(=S)c2ccc(N(C)C)cc2)cc1", "Potency": "inconclusive: 2.31 µM [activator, full curve]"},
      {"smiles": "Cc1c(Cl)c([N+](=O)[O-])nn1CC(=O)NCc1cccs1", "activity change, negative = inhibition": "inactive: -0.0502%"},
      {"smiles": "COc1cccc(/C(C#N)=C/c2c(-c3ccc(Cl)cc3)nc3c(C)cccn23)c1", "Potency": "inconclusive: 20.6 µM [falling, single point]"},
      {"smiles": "CCCCCCC(O)(c1ccccc1)C(CN1CCOCC1)c1ccccc1", "note": "(stereo not given)", "activity change, negative = inhibition": "inactive: -3.51%"},
      {"smiles": "O=C(NC1CCCC1)c1cc(-c2cccs2)on1", "Potency": "inconclusive: 1.46 µM [activator, full curve]"},
      {"smiles": "COC(=O)c1ccc(NC2(C#N)C(=O)Nc3ccccc32)cc1", "note": "(stereo not given)", "activity change, negative = inhibition": "inactive: -14.8%"},
      {"smiles": "Cc1cccc(OCc2nnc(SC(C)C(=O)Nc3ccc(N4CCOCC4)cc3)o2)c1", "note": "(stereo not given)", "Potency": "inconclusive: 2.06 µM [falling, full curve, poor fit]"},
      {"smiles": "COc1ccc(-c2ccc([C@H]3[C@@H]4C=CCC[C@@]4(C)C(=O)N3Cc3ccccc3)c(F)c2)cc1", "activity change, negative = inhibition": "inactive: -28.6%"},
      {"smiles": "COc1cc(/C=C/C(=O)Nc2ccc(OC)c(S(=O)(=O)N3CCOCC3)c2)ccc1OCC#N", "Potency": "active: 9.2 µM"},
      {"smiles": "O=[N+]([O-])c1ccc(-c2cnc(SC(c3ccccc3)c3ccccc3)[nH]2)cc1", "Potency": "inconclusive: 29.1 µM [falling, single point]"},
      {"smiles": "CCOc1ccccc1C1CC(c2cccs2)=NN1S(C)(=O)=O", "note": "(stereo not given)", "Potency": "inconclusive: 2.06 µM [activator, partial curve, poor fit]"},
      {"smiles": "O=C(CNS(=O)(=O)c1ccc(Br)s1)N1CCN(c2ccccc2F)CC1", "Potency": "inconclusive: 29.1 µM [falling, single point]"},
      {"smiles": "COc1ccccc1NC(=O)CN1CCC(n2nnc3cc(F)ccc32)CC1", "Potency": "inconclusive: 16.4 µM [falling, partial curve, poor fit]"},
      {"smiles": "CC(C)NC(=O)COc1ccccc1C#N", "Potency": "inconclusive: 2.06 µM [falling, single point]"},
      {"smiles": "CCc1nn(CC(=O)NCc2cccc(OC)c2)c(=O)c2cc3cc(F)ccc3n12", "Potency": "inconclusive: 6.51 µM [falling, single point]"},
      {"smiles": "Clc1ccccc1Cn1nnc2c(Nc3ccccc3)ncnc21", "Potency": "inconclusive: 29.1 µM [falling, single point]"},
      {"smiles": "CCOC(=O)c1ccc(NC(=S)NNC(=O)C2(C)CC2(Cl)Cl)cc1", "note": "(stereo not given)", "activity change, negative = inhibition": "inactive: -20.5%"},
      {"smiles": "Cn1cnnc1SCC(=O)NN(c1ccccc1)c1ccccc1", "Potency": "inconclusive: 13 µM [activator, partial curve]"},
      {"smiles": "Cc1ccc(OCCCC(=O)Nc2ccc(Cl)c(S(=O)(=O)N3CCOCC3)c2)cc1", "Potency": "inconclusive: 20.6 µM [falling, single point]"},
      {"smiles": "COc1ccccc1CCNC(C)CCc1ccc(O)cc1", "note": "(stereo not given)", "activity change, negative = inhibition": "inactive: 10%"},
      {"smiles": "Cc1ccc(NC(=O)CSCC(=O)Nc2cc(S(=O)(=O)N3CCOCC3)ccc2OC(C)C)cc1", "Potency": "inconclusive: 16.4 µM [falling, partial curve, poor fit]"},
      {"smiles": "CC(=O)N(C)C1=C(N2CCOCC2)C(=O)c2ccccc2C1=O", "Potency": "active: 0.461 µM"},
      {"smiles": "CCCCNC(=O)COC(=O)c1c2c(nc3ccccc13)/C(=C/c1cccs1)CC2", "Potency": "inconclusive: 9.2 µM [activator, partial curve, poor fit]"},
      {"smiles": "COc1ccccc1CCNC(=O)c1cccn1-c1nnc(N2CCCCC2)s1", "Potency": "inconclusive: 13 µM [activator, partial curve, poor fit]"},
      {"smiles": "COc1ccc(S(=O)(=O)N(C)Cc2cccs2)cc1Br", "Potency": "inconclusive: 4.11 µM [falling, partial curve, poor fit]"},
      {"smiles": "O=C(CCCCCN1C(=O)CCC1=O)Nc1ccc2c(c1)OCO2", "Potency": "inconclusive: 25.9 µM [activator, partial curve, poor fit]"},
      {"smiles": "CC(C)CN1CC(Br)C(=O)NC1=O", "note": "(stereo not given)", "activity change, negative = inhibition": "inactive: -17.5%"},
      {"smiles": "CS(=O)(=O)N(CC(=O)Nc1ccccc1-c1ccccc1)c1ccccc1", "Potency": "inconclusive: 18.4 µM [activator, partial curve, poor fit]"},
      {"smiles": "Cc1ccc(NC(=O)CNCc2ccccn2)cc1S(=O)(=O)N(C)C", "Potency": "inconclusive: 20.6 µM [activator, single point]"},
      {"smiles": "CCOc1ccccc1NC(=O)CSc1cc(=O)n(CC)c2ccccc12", "Potency": "inconclusive: 32.6 µM [falling, single point]"},
      {"smiles": "COc1ccccc1-n1ccn(CC(=O)Nc2ccc(C)cc2Cl)c(=O)c1=O", "Potency": "inconclusive: 23.1 µM [activator, single point]"}
    ]}
  ]
}
